In general, AC50 refers to the concentration at which the activity in the assay is half-maximal.

The structures appear in SMILES notation. The list shows a part of the results. These are further read-outs of the screen, such as a control signal, another cell line or another target. No call is given for them. Compounds called inactive in the main read-out are mostly missing here. The note in brackets gives the kind of curve behind each potency; many fits are weak.

Consider 37 compounds from PubChem BioAssay AID2685 (National Center for Advancing Translational Sciences (NCATS), 2010).

The experiment is described as follows: qHTS Assay for Lipid Storage Modulators in Drosophila S3 Cells.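 As to cell number change: cells counted by Cell Tracker Red CMTPX staining in the red channel.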 Particulars: BODIPY lipid droplet fluorescence, 18-24 h; for cell number change: measured here: cell count max response, cells fed with added oleic acid. In short, it runs like this: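 Laser-scanning cytometry quantifies lipid droplet accumulation (500–530 nm total intensity; droplet/cell object ratio) in oleic acid-fed (400 uM added) Drosophila S3 cells treated with a concentration series. 20 uM Triacsin C defined 100% inhibition.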
A general note: Quantitative high-throughput screening tests each substance at several concentrations.

[1] abbreviates: measured here: lipid fluorescence (Fed channel) AC50, cells fed with added oleic acid.
Setting [2] is: measured here: cell number channel AC50, cells fed with added oleic acid.

Regarding `CC1CCCN(CC(=O)NC(=O)NC2CCCCC2)C1` (configuration not stated), the cell number change was -7.35%. Under setting [1], the AC50 is 0.651 µM [rising, single point].

Consider `CCn1cc(C(=O)OCC(=O)Nc2c(C)n(C)n(-c3ccccc3)c2=O)c(=O)c2ccc(C)nc21`, for which the cell number change turned out to be 1.22%.

As for `Cc1nc(C)c(C(=O)C2=C(O)C(=O)N(CCCN(C)C)C2c2ccco2)s1` (configuration not stated), the cell number change stood at 22%. Besides, the AC50 under setting [2] is 0.00651 µM [rising, full curve, poor fit].

As for `COc1c(C)cc(Br)cc1C(=O)Nc1ccc(N2CCN(S(C)(=O)=O)CC2)cc1`, the half-maximal activity concentration (AC50) under setting [1] is 2.06 µM [rising, partial curve].

As for `CCC1NC(=S)N(C2CCCCC2)C1=O` (configuration not stated), the cell number change came out at 32.5%. Moreover, the concentration at half-maximal activity (AC50) under setting [1] is 23.1 µM [rising, single point].

`COc1cc(/C=C2/C(=O)NN(c3ccc(Cl)c(Cl)c3)C2=O)cc([N+](=O)[O-])c1O`: the cell number change was 1.8%. Further, under setting [2], the AC50 is 0.411 µM [falling, single point]. In addition, under setting [1], the AC50 was 29.1 µM [falling, single point].

`O=C(COC(=O)COc1ccccc1Cl)Nc1ccccc1OC(F)F`: the cell number change is -38.1%. Moreover, the AC50 under setting [2] was 1.16 µM [falling, full curve]. In addition, the AC50 under setting [1] was 3.26 µM [falling, full curve].

In the case of `CN1CCC(=NNC(=O)COc2ccc(Cl)cc2)CC1`, the cell number change worked out at 57.6%. Also, the AC50 under setting [2] was 0.326 µM [rising, full curve]. For the same compound, under setting [1], the half-maximal activity concentration (AC50) is 29.1 µM [rising, single point].

Regarding `Cc1ccc(NC(=S)C2=C(O)c3sccc3N(C)S2(=O)=O)cc1`, the cell number change was 11.7%. Besides, the AC50 under setting [1] is 0.103 µM [rising, full curve, poor fit].

`Cc1cnc(NC(=O)CSc2nnc(Cc3ccccc3)n2C)s1`: under setting [2], the AC50 is 2.59 µM [rising, partial curve].

`NC(=O)c1ccsc1NC(=O)COC(=O)c1ccc(Cl)nc1`: the cell number change turned out to be 10.5%. For the same compound, the AC50 under setting [1] was 23.1 µM [rising, single point].

Turning to `N#Cc1c(N2CCOCC2)nc(-c2ccco2)c2c1CCCC2`, the cell number change is -1.6%. Under setting [1], the AC50 is 29.1 µM [rising, single point].

Take `O=C(COC(=O)c1ccc(Br)o1)Nc1nc2ccccc2s1`: the cell number change stood at 6.52%. Besides, under setting [2], the AC50 is 0.164 µM [falling, full curve].

Take `FC(F)(F)c1cccc(NC(=S)Nc2cccc(Cl)c2)c1`: the cell number change is -39%. For the same compound, the AC50 under setting [2] was 20.6 µM [falling, single point]. Also, the AC50 under setting [1] is 18.4 µM [falling, single point].

On to `Cc1ccccc1C(=O)N1CCN(c2ncnc3c2cnn3-c2ccccc2)CC1`, for which the cell number change was -30.1%. Also, under setting [2], the AC50 is 0.259 µM [falling, full curve, poor fit].

Regarding `COc1ccc(-n2c(CCc3ccccc3)nnc2SCC(=O)c2ccccc2)cc1`, the cell number change is -8.03%. In addition, under setting [1], the AC50 was 0.517 µM [falling, partial curve].

For the compound `Cc1onc(-c2ccccc2)c1C(=O)NCCc1ccncc1`, the cell number change was determined as 9.17%. Further, under setting [1], the AC50 was 32.6 µM [rising, single point].

`Cc1ccc(C(=O)CSc2ncnc3ccccc23)o1`: the cell number change was -2.71%. For the same compound, the concentration at half-maximal activity (AC50) under setting [2] was 2.31 µM [rising, partial curve, poor fit]. For the same compound, under setting [1], the AC50 is 1.46 µM [rising, partial curve].

With `COc1ccccc1-n1cnnc1SCc1csc(-c2ccccc2)n1`, the cell number change was 60.2%. Besides, the AC50 under setting [2] is 20.6 µM [rising, partial curve, poor fit]. Under setting [1], the AC50 was 29.1 µM [rising, partial curve].

On to `COc1ccc(NC(=O)CSc2nnnn2-c2ccccc2F)cc1`, for which the cell number change was found to be 37.2%.

Turning to `Cc1cc2ccccc2n1CCNC(=O)C1CCCC1`, the cell number change was found to be 27.1%. Besides, the AC50 under setting [1] was 2.31 µM [rising, partial curve, poor fit].

Turning to `COc1ccc2oc(C)c(C(=O)NN)c2c1`, the cell number change was -6.11%.

On to `CC(C)CCNC(=O)c1onc(CSc2ccc(F)cc2)c1C(=O)NCCC(C)C`, for which the cell number change came out at 33.2%. In addition, the AC50 under setting [2] was 14.6 µM [rising, partial curve, poor fit]. In addition, the AC50 under setting [1] is 14.6 µM [rising, partial curve].

For the compound `O=C(COCC(=O)Nc1cccc(C(F)(F)F)c1)Nc1cccc(C(F)(F)F)c1`, the cell number change is -146%. Also, the AC50 under setting [2] was 29.1 µM [falling, single point]. Besides, under setting [1], the AC50 is 2.59 µM [rising, partial curve].

With `CC(=O)N1c2ccc(S(=O)(=O)N3CCCC3)cc2CC1C(=O)NCc1ccc(OC(C)C)cc1` (configuration not stated), the cell number change is -26.3%.

For `O=C1CSC(c2nn(-c3ccccc3)cc2-c2cc3ccccc3oc2=O)N1Cc1ccco1` (configuration not stated), the cell number change stood at 13.4%. For the same compound, under setting [1], the AC50 was 16.4 µM [falling, single point].

As for `CCNS(=O)(=O)c1ccc(CCC(=O)Nc2cc(Cl)ccc2Oc2ccccc2)cc1`, the cell number change is -46.9%. Further, the concentration at half-maximal activity (AC50) under setting [2] was 6.51 µM [falling, partial curve].

Regarding `CNc1c([N+](=O)[O-])ncn1C`, the cell number change was 19.9%. Also, the AC50 under setting [1] is 7.31 µM [falling, partial curve, poor fit].

For `CCc1nnc(NC(=O)CSc2nc(SC)ns2)s1`, the cell number change is -12.2%.

Regarding `Cc1cccc(C)c1OCC(=O)NCC1CCCO1` (configuration not stated), the cell number change was determined as 19.9%. Besides, under setting [1], the AC50 is 6.51 µM [rising, single point].

`CS(=O)c1ccccc1COC(=O)Nc1ccc(Cl)cc1` (configuration not stated): the AC50 under setting [2] was 0.517 µM [rising, single point] and the AC50 under setting [1] is 0.651 µM [rising, single point].

In the case of `O=C(Nc1nc2c(F)cc(F)cc2s1)C1COc2ccccc2O1` (configuration not stated), the cell number change amounted to 35.6%. Besides, under setting [2], the AC50 was 29.1 µM [rising, single point].

As to `O=C(O)C1C2C=CC(C2)C1C(=O)Nc1cccc(F)c1` (configuration not stated), the cell number change is -184%. Moreover, under setting [2], the AC50 was 29.1 µM [falling, single point].

Turning to `CCOC(=O)C1CCN(C(=O)CCS(=O)(=O)c2ccc3c(c2)CCN3C(C)=O)CC1`, the cell number change was -6.25%. The concentration at half-maximal activity (AC50) under setting [2] is 0.13 µM [falling, full curve, poor fit]. Under setting [1], the half-maximal activity concentration (AC50) was 0.82 µM [rising, full curve].

In the case of `CCOC(=O)N1CCC(N2Cc3cccc(C(=O)Nc4ccc(CC)cc4)c3C2=O)CC1`, the AC50 is 1.16 µM [rising, full curve] under setting [2] and 6.51 µM [rising, single point] under setting [1].

`O=C(COc1ccc2c3c(c(=O)oc2c1)CCCC3)NCc1cccnc1`: the cell number change was -14.7%. Also, under setting [1], the AC50 was 7.31 µM [rising, partial curve].

As for `Cc1cc(C(=O)CSc2nc3ccccc3[nH]2)c(C)n1Cc1ccco1`, the cell number change was -83.3%. Moreover, the AC50 under setting [2] is 29.1 µM [falling, single point]. For the same compound, the AC50 under setting [1] was 14.6 µM [falling, partial curve].
